For 4 molecules, binding results are on record in PMC8462815.

Protein sequences, listed by entry. Tags and fused reporters are not part of them. Lines headed by an entry give the natural chain unless they say otherwise; changes in a name come on top.
UniProt Q9FFC9: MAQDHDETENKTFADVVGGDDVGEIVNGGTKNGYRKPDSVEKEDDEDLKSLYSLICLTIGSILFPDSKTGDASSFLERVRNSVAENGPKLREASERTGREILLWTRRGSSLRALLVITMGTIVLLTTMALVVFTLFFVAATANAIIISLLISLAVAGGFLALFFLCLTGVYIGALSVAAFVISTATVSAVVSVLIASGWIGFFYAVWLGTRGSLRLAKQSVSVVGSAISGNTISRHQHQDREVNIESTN

Experiment [1] deals with full-length Arabidopsis LDIP, yeast two-hybrid fusion (pGBK/LDIP) (Arabidopsis thaliana). Description: two-hybrid; Gal4 yeast two-hybrid in Y2HGold; serial dilutions on DDO (-Trp -Leu) and QDO (-Trp -Leu -His -Ade) plates; growth on QDO read as interaction.
Experiment [2] deals with cCFP-LDIP (Arabidopsis LDIP fused to the C-terminal half of CFP) (Arabidopsis thaliana) (UniProt Q9FFC9). Kind of experiment: split reporter; BiFC (cCFP/nVenus) in N. benthamiana leaf epidermal cells; Cherry-Perox as transformation marker; BiFC puncta per Cherry-Perox puncta counted in 30 leaf areas from three infiltrations.

Results are given in words; binding and its absence hold for the method and conditions named. Binding calls can cover weak binding; strength is not graded here. Tags and fused reporters may be left off the sequences shown. For some of these results: In cells and extracts the contact can be indirect.

B1: GFP-SEIPIN2 HH (SEIPIN2 HH sequence appended to GFP), yeast two-hybrid fusion (pGAD/GFP-SEIPIN2 HH) (domain or fragment, UniProt F4I340 394-416)
chain: FRSEPIRLVQTFFKVVPLVTGYV
In the case of B1, in experiment [1], the binding result is listed as “binds”.

B2: SEIPIN2ΔHH, yeast two-hybrid fusion (pGAD/SEIPIN2ΔHH) (protein, UniProt F4I340)
chain: MDSESESESNPSTTDEFDRFLDAPDEFYYDCLPIRSNSHQPSSLLRRRKSAHRRDLISSDIETEPSSSSDGFDVGEKSSYVEKNAELRGDIDTSDVIESTKDSIDLSSEKENDLDVISSSGNDMDVIDSGRNRVDPFQEESTVTTVSSDDQGDDDYAGSVPQFREPPNSTEWSLLGFLVGLVIKAIEFQVSFMTSLLTFPPWLLRNCFLFFFDPFSTIRFGRRFLMARVAGISDMIFGYMNPFRLKDTKQMLSIVCKFGWGMFWAVYVGIVLFGLLVSSLMIGGYVINRIADKPFEVKETLNFDYTKNSPEAYVPISSCAGVECEGSCKESNEMSKIRGLRVIPRDQKLDIILSMTLPESAYNKNLGMFQVRVDFLSVDGQTIASIRRPCMLRFSEIQTLSLKLKGFVEKDIPTACLKIIIEQRAEFRPGAGIPELYDASLSVESGLPFFRKIIWKWRKTLFVWISMSLFITELLFTLVCCRPLIIPRTQPRDRSPSNPTGVWR
Take B2: the binding result in experiment [1] was “no binding”.

B3: nVenus-SEIPIN2 (N-terminal half of Venus fused to Arabidopsis SEIPIN2) (protein, UniProt F4I340 1-526)
chain: MDSESESESNPSTTDEFDRFLDAPDEFYYDCLPIRSNSHQPSSLLRRRKSAHRRDLISSDIETEPSSSSDGFDVGEKSSYVEKNAELRGDIDTSDVIESTKDSIDLSSEKENDLDVISSSGNDMDVIDSGRNRVDPFQEESTVTTVSSDDQGDDDYAGSVPQFREPPNSTEWSLLGFLVGLVIKAIEFQVSFMTSLLTFPPWLLRNCFLFFFDPFSTIRFGRRFLMARVAGISDMIFGYMNPFRLKDTKQMLSIVCKFGWGMFWAVYVGIVLFGLLVSSLMIGGYVINRIADKPFEVKETLNFDYTKNSPEAYVPISSCAGVECEGSCKESNEMSKIRGLRVIPRDQKLDIILSMTLPESAYNKNLGMFQVRVDFLSVDGQTIASIRRPCMLRFRSEPIRLVQTFFKVVPLVTGYVSEIQTLSLKLKGFVEKDIPTACLKIIIEQRAEFRPGAGIPELYDASLSVESGLPFFRKIIWKWRKTLFVWISMSLFITELLFTLVCCRPLIIPRTQPRDRSPSNPTGVWR
For the molecule B3, in experiment [2], the binding result is “binds”.

B4: full-length Arabidopsis SEIPIN2, yeast two-hybrid fusion (pGAD/SEIPIN2) (protein, UniProt F4I340 1-526)
chain: B3 chain
Regarding B4, the binding entry in experiment [1] is listed as “binds”.
